From PubChem BioAssay AID1347076 (National Center for Advancing Translational Sciences (NCATS), 2019)
Hit rate of the full screen: of about 400,000 compounds, about 13,000 (3.2%) were called active. Inconclusive means that the source gave no clear call. Such entries were picked first, then a sample of the others. Calls follow the shape of the dose curve; as a rule, active = well fitted cell-killing curve with a large enough effect; inconclusive = small, poorly fitted or top-dose-only effect, or effect the other way; inactive = flat fitted curve, though single readings scatter. Potencies of inconclusive entries are doubtful fits and often do not repeat.

Assay: qHTS assay for MDR1-selective chemotherapeutics: Primary screen using the drug-selected MDR subline cells KB-V1; also: nearly all actives have a fitted effect of over 60% in size
Conditions: KB-V1 MDR cells viability, CellTiter-Glo, 72 h; series mostly up to 46.1 µM
In short: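 Compound-treated KB-V1 multidrug-resistant cells, 72 h, 37 degrees C; viability by CellTiter-Glo. Fitted qHTS curves give the values.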
Potency is read from the fitted curve at half-maximal effect.

Row | Compound | Potency
1 | CCOc1ccc(NC(=O)c2ccc(NCC(=O)N3CCCCCC3)cc2)cc1 | inconclusive: 10.3 µM [cytotoxic, partial curve, poor fit]
2 | O=C(Nc1c(C(=O)N2CCN(c3ccccn3)CC2)oc2ccccc12)c1ccc([N+](=O)[O-])cc1 | inactive
3 | CC1Cc2ccccc2N1C(=O)CSc1nc(-c2ccco2)cc(C(F)(F)F)n1 (centres undefined) | inconclusive: 2.31 µM [cytotoxic, full curve]
4 | CC(=NNc1ccccc1)C(C)=NNc1ccccc1 | inactive
5 | Cn1c(=O)c2c(nc(SCC(=O)NCc3ccc4c(c3)OCO4)n2Cc2ccc(F)cc2)n(C)c1=O | inconclusive: 16.4 µM [cytotoxic, partial curve, poor fit]
6 | Cc1ccc(-c2nc3cnccn3c2Nc2ccccc2)o1 | inconclusive: 29.1 µM [rising, single point]
7 | COc1ccc(S(=O)(=O)Nc2ccc3c(c2)OCO3)cc1Cl | inconclusive: 25.9 µM [cytotoxic, single point]
8 | Cc1cc(C(=O)COC(=O)Cc2n[nH]c(=O)c3ccccc23)c(C)n1-c1ccc2c(c1)OCO2 | inconclusive: 16.4 µM [cytotoxic, single point]
9 | O=C(CSc1nccc(-c2cccs2)n1)Nc1ccc(Cl)cc1 | inconclusive: 29.1 µM [cytotoxic, single point]
10 | Cn1c(CO)c(-c2ccccc2)c2cc([N+](=O)[O-])ccc21 | inconclusive: 16.4 µM [cytotoxic, single point]
11 | CC(C)NC(=O)Cn1ccc2cc(S(=O)(=O)N3CCCCCC3)ccc21 | inactive
12 | CN1C[C@@H]2[C@@H]3C(=O)N(C)C(=O)[C@@H]3[C@](C)(C1=O)N2C(=O)c1ccc(Cl)c(Cl)c1 | inactive
13 | O=C(c1cccc(Cl)c1)N(Cc1ccco1)C1CCS(=O)(=O)C1 (centres undefined) | inactive
14 | CCCOc1ccc(C(=O)NCC(c2ccc(OC)cc2)N2CCCCC2)cc1 (centres undefined) | inactive
15 | COC(=O)c1ccccc1NC(=O)CSc1nnc(C(C)NC(=O)c2ccc(Cl)cc2Cl)n1C (centres undefined) | inconclusive: 20.6 µM [cytotoxic, partial curve, poor fit]
16 | COc1cc(-c2nnc(NC(=O)CCS(=O)(=O)c3ccccc3)o2)cc(OC)c1OC | inactive
17 | O=c1oc2ccc3ccccc3c2cc1-c1nc2ccccc2o1 | inactive
18 | CCc1cc(C(=O)N2CCCC(C(=O)c3cccc4ccccc34)C2)n(C)n1 (centres undefined) | active: 5.17 µM
19 | CC(C)C[C@H]1CN([C@@H](Cc2ccc(O)cc2)CN2CCCC2CN2C(=S)NC[C@@H]2Cc2ccccc2)C(=S)N1CC1CCCCC1 (some centres undefined) | inconclusive: 5.17 µM [cytotoxic, partial curve, poor fit]

An excerpt of these results, with each value named:
COC(=O)c1ccccc1NC(=O)CSc1nnc(C(C)NC(=O)c2ccc(Cl)cc2Cl)n1C (centres undefined)
  Potency: inconclusive: 20.6 µM [cytotoxic, partial curve, poor fit]
COc1cc(-c2nnc(NC(=O)CCS(=O)(=O)c3ccccc3)o2)cc(OC)c1OC
  Potency: inactive
